Test results reported in PMC5739756.
These are yes or no findings as the source states them, for the method shown. In cells and extracts the contact can be indirect. Some results given as binding are weak or reduced against the parent protein; the word gives no strength.

Biological target: T1, Transforming growth factor-β-activated kinase 1 (TAK1) (human (endogenous in SW480)) (UniProt O43318)
T1 sequence: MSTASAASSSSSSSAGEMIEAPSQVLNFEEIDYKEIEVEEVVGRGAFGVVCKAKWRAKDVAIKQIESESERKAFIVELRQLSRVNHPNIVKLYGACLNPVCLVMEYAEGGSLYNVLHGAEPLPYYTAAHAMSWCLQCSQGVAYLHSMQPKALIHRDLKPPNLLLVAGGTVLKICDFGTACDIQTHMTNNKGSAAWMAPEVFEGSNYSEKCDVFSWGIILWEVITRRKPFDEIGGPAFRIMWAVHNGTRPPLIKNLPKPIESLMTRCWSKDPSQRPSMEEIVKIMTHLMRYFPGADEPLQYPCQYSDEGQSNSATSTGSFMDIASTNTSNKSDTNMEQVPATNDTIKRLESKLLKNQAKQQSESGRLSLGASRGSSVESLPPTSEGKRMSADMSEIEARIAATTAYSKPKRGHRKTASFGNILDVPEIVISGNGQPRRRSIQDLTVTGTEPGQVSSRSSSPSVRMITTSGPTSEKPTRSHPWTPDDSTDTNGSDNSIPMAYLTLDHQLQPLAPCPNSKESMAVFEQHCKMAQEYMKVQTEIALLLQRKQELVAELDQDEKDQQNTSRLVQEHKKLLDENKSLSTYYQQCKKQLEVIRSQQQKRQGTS
Assay: co-IP; co-IP among endogenous TAB3, TAK1 and TRAF6 in SW480 cells; procedure as previously described (ref. 37); also done after silencing (shTAB3, shTRAF6, shTAK1) or overexpression of TAB3, TRAF6 or TAK1 in CRC cells: the interaction decreased or increased

binding: binds
B1: Transforming growth factor-β-activated kinase 1 (TAK1)-binding protein 3 (TAB3) (protein, UniProt Q8N5C8 1-712)
chain: MAQSSPQLDIQVLHDLRQRFPEIPEGVVSQCMLQNNNNLEACCRALSQESSKYLYMEYHSPDDNRMNRNRLLHINLGIHSPSSYHPGDGAQLNGGRTLVHSSSDGHIDPQHAAGKQLICLVQEPHSAPAVVAATPNYNPFFMNEQNRSAATPPSQPPQQPSSMQTGMNPSAMQGPSPPPPPPSYMHIPRYSTNPITVTVSQNLPSGQTVPRALQILPQIPSNLYGSPGSIYIRQTSQSSSGRQTPQSTPWQSSPQGPVPHYSQRPLPVYPHQQNYQPSQYSPKQQQIPQSAYHSPPPSQCPSPFSSPQHQVQPSQLGHIFMPPSPSTTPPHPYQQGPPSYQKQGSHSVAYLPYTASSLSKGSMKKIEITVEPSQRPGTAINRSPSPISNQPSPRNQHSLYTATTPPSSSPSRGISSQPKPPFSVNPVYITYTQPTGPSCTPSPSPRVIPNPTTVFKITVGRATTENLLNLVDQEERSAAPEPIQPISVIPGSGGEKGSHKYQRSSSSGSDDYAYTQALLLHQRARMERLAKQLKLEKEELERLKSEVNGMEHDLMQRRLRRVSCTTAIPTPEEMTRLRSMNRQLQINVDCTLKEVDLLQSRGNFDPKAMNNFYDNIEPGPVVPPKPSKKDSSDPCTIERKARRISVTSKVQADIHDTQAAAADEHRTGSTQSPRTQPRDEDYEGAPWNCDSCTFLNHPALNRCEQCEMPRYT
